Data published in patent publication US20070072850A1, “Pesticides” (Bayer CropScience S.A., priority 2003, published 2007).
Some results were stated once for a whole list of compounds, not compound by compound.

Test system: Ctenocephalides felis (Cat flea)
Assay: METHOD A: screening method to test systemicity of compounds against Ctenocephalides felis (artificial dog test, treated bovine blood)
Format: in vivo
Details: test concentration of 5 ppm or less; compound in bovine blood; 10 adults; assessment at 24 and 48 hours after application

Row | SMILES | control of Ctenocephalides felis
1 | CSCCN(C)c1c(SC(F)(F)F)c(C(N)=S)nn1-c1c(Cl)cc(C(F)(F)F)cc1Cl [Compound 1-1, 1-(2,6-Dichloro-4-trifluoromethylphenyl)-5-N-methyl-N-(2-methylthioethyl)amino-4-trifluoromethylthiopyrazole-3-thiocarboxamide] | at least 80%
2 | CN(CC[S+](C)[O-])c1c(SC(F)(F)F)c(C(N)=S)nn1-c1c(Cl)cc(C(F)(F)F)cc1Cl (stereo not drawn) [Compound 1-2, 1-(2,6-dichloro-4-trifluoromethylphenyl)-5-N-methyl-N-(2-methylsulfinylethyl)amino-4-trifluoromethylthiopyrazole-3-thiocarboxamide] | at least 80%
3 | CN(CCS(C)(=O)=O)c1c(S(=O)(=O)C(F)(F)F)c(C(N)=S)nn1-c1c(Cl)cc(C(F)(F)F)cc1Cl [Compound 1-9, 1-(2,6-dichloro-4-trifluoromethylphenyl)-5-N-methyl-N-(2-methylsulfonylethyl)amino-4-trifluoromethylsulfonylpyrazole-3-thiocarboxamide] | at least 80%
